In the M2OR odorant receptor database:
Residue numbers refer to the chain shown, from its start. The list shows a part of the results, in another mix than the full data. Calls are pooled over several reports, among them a noisy single-well screen. Some of the results follow.

Chains of the proteins cited; added tags and fusions are not shown. A line that says so, or that is headed by a name, gives the form on record, which may keep a tag or linker.
OR1A2 A108G, as listed by the source, stated change not applied: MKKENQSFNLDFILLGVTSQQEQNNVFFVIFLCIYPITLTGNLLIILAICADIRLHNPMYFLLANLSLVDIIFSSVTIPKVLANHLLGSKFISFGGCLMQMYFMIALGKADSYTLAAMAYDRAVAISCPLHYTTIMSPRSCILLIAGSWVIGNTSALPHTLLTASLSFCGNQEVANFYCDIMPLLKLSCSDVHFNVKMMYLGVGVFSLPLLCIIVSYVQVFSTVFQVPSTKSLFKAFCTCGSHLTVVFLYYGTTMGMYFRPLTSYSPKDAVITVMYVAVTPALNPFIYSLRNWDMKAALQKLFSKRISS
OR1A2 V277T, as listed by the source, stated change not applied: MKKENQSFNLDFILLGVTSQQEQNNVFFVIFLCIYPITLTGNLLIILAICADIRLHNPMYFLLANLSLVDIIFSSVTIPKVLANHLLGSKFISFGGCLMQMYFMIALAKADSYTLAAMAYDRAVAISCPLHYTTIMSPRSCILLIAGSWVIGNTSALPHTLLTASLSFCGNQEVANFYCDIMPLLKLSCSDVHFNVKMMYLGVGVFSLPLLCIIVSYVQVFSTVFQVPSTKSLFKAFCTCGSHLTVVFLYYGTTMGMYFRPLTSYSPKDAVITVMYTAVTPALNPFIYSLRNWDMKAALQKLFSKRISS
OR1E2, as listed by the source: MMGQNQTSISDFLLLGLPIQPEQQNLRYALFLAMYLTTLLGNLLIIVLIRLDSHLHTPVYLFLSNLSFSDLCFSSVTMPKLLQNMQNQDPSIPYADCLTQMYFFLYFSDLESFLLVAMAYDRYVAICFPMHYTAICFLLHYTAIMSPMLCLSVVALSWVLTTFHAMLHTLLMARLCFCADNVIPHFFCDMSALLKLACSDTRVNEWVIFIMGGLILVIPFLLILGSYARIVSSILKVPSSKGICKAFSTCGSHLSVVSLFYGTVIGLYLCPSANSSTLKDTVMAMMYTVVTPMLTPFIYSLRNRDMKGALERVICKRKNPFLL
OR1A2 T254V, as listed by the source, stated change not applied: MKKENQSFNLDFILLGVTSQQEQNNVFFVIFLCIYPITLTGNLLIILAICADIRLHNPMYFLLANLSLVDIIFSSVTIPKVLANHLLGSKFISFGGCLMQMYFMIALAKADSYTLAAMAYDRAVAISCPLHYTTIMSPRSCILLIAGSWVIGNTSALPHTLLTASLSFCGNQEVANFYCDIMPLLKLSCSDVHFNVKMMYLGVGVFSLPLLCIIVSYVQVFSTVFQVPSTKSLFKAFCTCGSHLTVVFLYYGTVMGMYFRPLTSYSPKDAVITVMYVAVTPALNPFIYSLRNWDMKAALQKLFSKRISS
OR1B1, as listed by the source: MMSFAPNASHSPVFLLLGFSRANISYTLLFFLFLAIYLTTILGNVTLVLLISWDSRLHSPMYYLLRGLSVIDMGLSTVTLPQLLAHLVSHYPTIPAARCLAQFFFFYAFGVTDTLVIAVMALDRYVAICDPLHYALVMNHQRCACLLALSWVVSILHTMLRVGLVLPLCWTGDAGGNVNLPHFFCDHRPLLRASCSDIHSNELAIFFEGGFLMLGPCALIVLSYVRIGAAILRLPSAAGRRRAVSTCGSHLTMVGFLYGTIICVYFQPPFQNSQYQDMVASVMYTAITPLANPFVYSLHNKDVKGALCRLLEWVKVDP
OR1A2 K109N, as listed by the source, stated change not applied: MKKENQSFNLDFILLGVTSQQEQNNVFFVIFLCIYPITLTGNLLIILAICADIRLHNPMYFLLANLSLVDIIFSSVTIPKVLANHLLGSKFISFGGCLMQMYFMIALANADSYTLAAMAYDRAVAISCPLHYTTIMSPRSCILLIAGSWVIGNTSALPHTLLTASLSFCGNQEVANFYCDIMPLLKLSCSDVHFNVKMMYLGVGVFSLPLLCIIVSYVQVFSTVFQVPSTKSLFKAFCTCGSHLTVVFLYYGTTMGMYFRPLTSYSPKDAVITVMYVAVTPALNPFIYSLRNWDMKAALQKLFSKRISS
OR1A2 V205I, as listed by the source, stated change not applied: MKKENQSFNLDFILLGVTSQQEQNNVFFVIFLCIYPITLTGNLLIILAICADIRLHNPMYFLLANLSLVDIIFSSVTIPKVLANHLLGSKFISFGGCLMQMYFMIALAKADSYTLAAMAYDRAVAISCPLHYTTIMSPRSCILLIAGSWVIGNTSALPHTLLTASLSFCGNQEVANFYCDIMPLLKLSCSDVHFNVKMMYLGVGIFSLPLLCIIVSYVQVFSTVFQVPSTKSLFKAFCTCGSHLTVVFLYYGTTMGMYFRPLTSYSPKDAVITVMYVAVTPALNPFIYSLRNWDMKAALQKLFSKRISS

Tests used:
Conditions in all cases: stereoisomer not certain
OR1C1 (Homo sapiens) = target: T1, OR1C1 (Homo sapiens) (UniProt Q15619)
T1 sequence (whole entry): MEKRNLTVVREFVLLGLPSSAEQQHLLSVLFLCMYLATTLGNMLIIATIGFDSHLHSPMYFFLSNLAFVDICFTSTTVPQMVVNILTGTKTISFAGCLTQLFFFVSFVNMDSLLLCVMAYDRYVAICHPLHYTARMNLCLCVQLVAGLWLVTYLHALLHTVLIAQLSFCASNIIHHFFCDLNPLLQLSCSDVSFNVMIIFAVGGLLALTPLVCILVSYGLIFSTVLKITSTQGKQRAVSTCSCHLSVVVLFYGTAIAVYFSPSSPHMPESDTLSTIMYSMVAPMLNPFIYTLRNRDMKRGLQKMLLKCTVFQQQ
Outline: (§1)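 Each receptor–molecule pair is labelled responsive or non-responsive (inactive) according to whether the original authors judged the measured signal statistically different from baseline. The data were taken from the main text and supplementary material of published papers and checked for typos and inconsistencies. Assay methods differed by source, with transient luciferase assays in mammalian cell lines being common.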

OR1D2 (Homo sapiens) = target: T2, OR1D2 (Homo sapiens) (UniProt P34982)
T2 sequence (whole entry): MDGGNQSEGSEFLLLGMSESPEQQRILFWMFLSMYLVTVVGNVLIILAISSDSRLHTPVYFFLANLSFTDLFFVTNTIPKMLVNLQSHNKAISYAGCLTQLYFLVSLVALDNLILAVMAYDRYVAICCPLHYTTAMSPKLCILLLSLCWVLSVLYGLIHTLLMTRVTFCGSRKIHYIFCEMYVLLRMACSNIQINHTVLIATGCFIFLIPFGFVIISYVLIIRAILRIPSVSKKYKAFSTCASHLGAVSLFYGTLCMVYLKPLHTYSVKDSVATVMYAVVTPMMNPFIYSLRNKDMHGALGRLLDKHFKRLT
Outline: as §1

OR1D5 (Homo sapiens) = target: T3, OR1D5 (Homo sapiens) (UniProt P58170)
T3 sequence (whole entry): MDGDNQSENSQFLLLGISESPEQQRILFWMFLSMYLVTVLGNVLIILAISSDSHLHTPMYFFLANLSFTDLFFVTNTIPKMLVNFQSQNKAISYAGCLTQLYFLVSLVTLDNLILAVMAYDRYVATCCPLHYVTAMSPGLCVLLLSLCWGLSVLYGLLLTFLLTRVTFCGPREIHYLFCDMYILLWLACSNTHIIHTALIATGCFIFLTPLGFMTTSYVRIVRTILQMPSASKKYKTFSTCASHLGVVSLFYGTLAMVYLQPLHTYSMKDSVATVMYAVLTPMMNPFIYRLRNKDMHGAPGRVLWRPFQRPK
Outline: as §1

OR1D5 = system: T4, OR1D5
T4 sequence (whole entry): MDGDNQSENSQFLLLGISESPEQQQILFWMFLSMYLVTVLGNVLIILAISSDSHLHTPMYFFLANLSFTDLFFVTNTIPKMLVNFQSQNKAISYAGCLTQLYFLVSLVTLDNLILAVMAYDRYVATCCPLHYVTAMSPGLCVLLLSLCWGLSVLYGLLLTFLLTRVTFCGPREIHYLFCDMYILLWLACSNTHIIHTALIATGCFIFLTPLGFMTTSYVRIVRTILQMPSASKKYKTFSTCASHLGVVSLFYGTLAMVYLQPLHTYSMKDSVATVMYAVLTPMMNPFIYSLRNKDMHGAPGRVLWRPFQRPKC
Outline: as §1

OR1E1 [1] = system: T5, OR1E1
T5 sequence (whole entry): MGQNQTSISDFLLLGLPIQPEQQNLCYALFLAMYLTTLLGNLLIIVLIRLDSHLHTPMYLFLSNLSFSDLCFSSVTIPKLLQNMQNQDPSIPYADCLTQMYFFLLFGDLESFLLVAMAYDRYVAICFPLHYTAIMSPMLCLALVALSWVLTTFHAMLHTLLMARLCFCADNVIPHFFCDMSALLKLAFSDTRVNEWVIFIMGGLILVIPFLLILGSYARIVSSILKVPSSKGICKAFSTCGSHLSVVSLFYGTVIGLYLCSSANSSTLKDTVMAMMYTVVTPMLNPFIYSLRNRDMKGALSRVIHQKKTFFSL
Outline: as §1

OR1E1 [2] = system: T6, OR1E1; remark: listed apart in the source
T6 sequence (whole entry): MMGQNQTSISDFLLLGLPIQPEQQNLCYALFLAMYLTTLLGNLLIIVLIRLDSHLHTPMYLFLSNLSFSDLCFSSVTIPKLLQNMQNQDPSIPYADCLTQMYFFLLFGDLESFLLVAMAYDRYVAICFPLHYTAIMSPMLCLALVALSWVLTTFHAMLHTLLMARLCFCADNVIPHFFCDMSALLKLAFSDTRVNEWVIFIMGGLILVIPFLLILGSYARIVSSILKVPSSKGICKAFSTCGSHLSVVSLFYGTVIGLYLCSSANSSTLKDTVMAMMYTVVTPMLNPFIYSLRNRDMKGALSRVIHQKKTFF
Outline: as §1

OR1E2 (Homo sapiens) = target: T7, OR1E2 (Homo sapiens) (UniProt P47887)
T7 sequence (whole entry): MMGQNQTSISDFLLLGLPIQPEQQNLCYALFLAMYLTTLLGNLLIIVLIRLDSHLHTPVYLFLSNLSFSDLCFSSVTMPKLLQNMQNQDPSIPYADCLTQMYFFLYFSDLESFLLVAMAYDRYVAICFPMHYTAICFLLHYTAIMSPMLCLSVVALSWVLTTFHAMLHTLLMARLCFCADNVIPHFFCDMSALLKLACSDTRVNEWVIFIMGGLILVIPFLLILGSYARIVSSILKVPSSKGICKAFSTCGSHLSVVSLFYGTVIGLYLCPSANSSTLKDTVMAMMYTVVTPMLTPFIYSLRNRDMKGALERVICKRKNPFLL
Outline: as §1

OR1E2 = system: T8, OR1E2
T8 sequence (whole entry): T7 sequence (whole entry) with C27R
Outline: as §1

OR1A2 A108G = system: OR1A2 A108G
Outline: as §1

OR1A2 K109N = system: OR1A2 K109N
Outline: as §1

OR1A2 T254V = system: OR1A2 T254V
Outline: as §1

OR1A2 V205I = system: OR1A2 V205I
Outline: as §1

OR1A2 V277T = system: OR1A2 V277T
Outline: as §1

OR1B1 = system: OR1B1
Outline: as §1

OR1D4 (Homo sapiens) = OR1D4 (Homo sapiens) (UniProt P47884)
Outline: as §1

OR1E1 (Homo sapiens) = OR1E1 (Homo sapiens) (UniProt P30953)
Outline: as §1

Measured: odorant receptor agonist call

CC(C)C=O
inactive: OR1C1 (Homo sapiens) | OR1D2 (Homo sapiens) | OR1D5 (Homo sapiens) | OR1D5 | OR1E1 [1] | OR1E1 [2] | OR1E2 (Homo sapiens) | OR1E2

CCCCCCCCCC=O
active: OR1D5
inactive: OR1C1 (Homo sapiens) | OR1D2 (Homo sapiens) | OR1D5 (Homo sapiens) | OR1E1 [1] | OR1E1 [2] | OR1E2 (Homo sapiens) | OR1E2

CC1=CCC(C(C)(C)O)CC1 (stereo not given)
inactive: OR1C1 (Homo sapiens) | OR1D2 (Homo sapiens) | OR1D5 (Homo sapiens) | OR1D5 | OR1E1 [1] | OR1E1 [2] | OR1E2 (Homo sapiens) | OR1E2

COc1cc(C=O)ccc1O
inactive: OR1C1 (Homo sapiens) | OR1D2 (Homo sapiens) | OR1D5 (Homo sapiens) | OR1D5 | OR1E1 [1] | OR1E1 [2] | OR1E2 (Homo sapiens) | OR1E2

O=C1CCCCCCCCCCCCCCO1
inactive: OR1C1 (Homo sapiens) | OR1D2 (Homo sapiens) | OR1D5 (Homo sapiens) | OR1D5 | OR1E1 [1] | OR1E1 [2] | OR1E2 (Homo sapiens) | OR1E2

C=CCc1ccc(OC(C)=O)c(OC)c1
active: OR1D5
inactive: OR1C1 (Homo sapiens) | OR1D2 (Homo sapiens) | OR1D5 (Homo sapiens) | OR1E1 [1] | OR1E1 [2] | OR1E2 (Homo sapiens) | OR1E2

CCCCCCCCCCC=O
inactive: OR1C1 (Homo sapiens) | OR1D2 (Homo sapiens) | OR1D5 (Homo sapiens) | OR1D5 | OR1E1 [1] | OR1E1 [2] | OR1E2 (Homo sapiens) | OR1E2

CCCCCCCOC(C)=O
inactive: OR1C1 (Homo sapiens) | OR1D2 (Homo sapiens) | OR1D5 (Homo sapiens) | OR1D5 | OR1E1 [1] | OR1E1 [2] | OR1E2 (Homo sapiens) | OR1E2

COc1ccccc1O
inactive: OR1C1 (Homo sapiens) | OR1D2 (Homo sapiens) | OR1D5 (Homo sapiens) | OR1D5 | OR1E1 [1] | OR1E1 [2] | OR1E2 (Homo sapiens) | OR1E2

CC12CCC(CC1)C(C)(C)O2
inactive: OR1C1 (Homo sapiens) | OR1D2 (Homo sapiens) | OR1D5 (Homo sapiens) | OR1D5 | OR1E1 [1] | OR1E1 [2] | OR1E2 (Homo sapiens) | OR1E2

CCC1(O)C2(C)CCC(C2)C1(C)C (stereo not given)
inactive: OR1C1 (Homo sapiens) | OR1D2 (Homo sapiens) | OR1D5 (Homo sapiens) | OR1D5 | OR1E1 [1] | OR1E1 [2] | OR1E2 (Homo sapiens) | OR1E2

C=CC(C)(O)CCC=C(C)C (stereo not given)
inactive: OR1D2 (Homo sapiens) | OR1D5 (Homo sapiens) | OR1D5 | OR1E1 [1] | OR1E1 [2] | OR1E2 (Homo sapiens) | OR1E2
active: OR1C1 (Homo sapiens)

c1cnccn1
inactive: OR1C1 (Homo sapiens) | OR1D2 (Homo sapiens) | OR1D5 (Homo sapiens) | OR1D5 | OR1E1 [1] | OR1E1 [2] | OR1E2 (Homo sapiens) | OR1E2

CC1CCC(C(C)C)C(O)C1 (stereo not given)
inactive: OR1C1 (Homo sapiens) | OR1D2 (Homo sapiens) | OR1D5 (Homo sapiens) | OR1D5 | OR1E1 [1] | OR1E1 [2] | OR1E2
active: OR1E2 (Homo sapiens)

C=C(C)C1CC=C(C)C(=O)C1 (stereo not given)
inactive: OR1A2 A108G | OR1A2 K109N | OR1A2 T254V | OR1A2 V205I | OR1A2 V277T

CC(C)=CCCC(C)=CC=O
inactive: OR1C1 (Homo sapiens) | OR1D2 (Homo sapiens) | OR1D5 (Homo sapiens) | OR1E1 [1] | OR1E1 [2] | OR1E2 (Homo sapiens) | OR1E2
active: OR1D5

CC(=O)OC1CC2CCC1(C)C2(C)C (stereo not given)
inactive: OR1C1 (Homo sapiens) | OR1D2 (Homo sapiens) | OR1D5 (Homo sapiens) | OR1D5 | OR1E1 [1] | OR1E1 [2] | OR1E2 (Homo sapiens) | OR1E2

CC(=O)C(C)=O
inactive: OR1C1 (Homo sapiens) | OR1D2 (Homo sapiens) | OR1D5 (Homo sapiens) | OR1D5 | OR1E1 [1] | OR1E1 [2] | OR1E2 (Homo sapiens) | OR1E2

CC(C)C(=O)O
inactive: OR1C1 (Homo sapiens) | OR1D2 (Homo sapiens) | OR1D5 (Homo sapiens) | OR1D5 | OR1E1 [1] | OR1E1 [2] | OR1E2 (Homo sapiens) | OR1E2

CC12C=CCC1C1CCC3CC(=O)CCC3(C)C1CC2 (stereo not given)
inactive: OR1B1 | OR1C1 (Homo sapiens) | OR1D2 (Homo sapiens) | OR1D4 (Homo sapiens) | OR1D5 (Homo sapiens) | OR1D5 | OR1E1 (Homo sapiens) | OR1E1 [1] | OR1E1 [2] | OR1E2 (Homo sapiens) | OR1E2

2 compounds drawn at random from the list so far:
CC(=O)OC1CC2CCC1(C)C2(C)C (stereo not given)
inactive: OR1C1 (Homo sapiens) | OR1D2 (Homo sapiens) | OR1D5 (Homo sapiens) | OR1D5 | OR1E1 [1] | OR1E1 [2] | OR1E2 (Homo sapiens) | OR1E2

CC12C=CCC1C1CCC3CC(=O)CCC3(C)C1CC2 (stereo not given)
inactive: OR1B1 | OR1C1 (Homo sapiens) | OR1D2 (Homo sapiens) | OR1D4 (Homo sapiens) | OR1D5 (Homo sapiens) | OR1D5 | OR1E1 (Homo sapiens) | OR1E1 [1] | OR1E1 [2] | OR1E2 (Homo sapiens) | OR1E2

Later entries:

CC12CCC(C1)C(C)(C)C2=O (stereo not given)
inactive: OR1C1 (Homo sapiens) | OR1D2 (Homo sapiens) | OR1D5 (Homo sapiens) | OR1D5 | OR1E1 [1] | OR1E1 [2] | OR1E2 (Homo sapiens) | OR1E2

CCCCO
inactive: OR1C1 (Homo sapiens) | OR1D2 (Homo sapiens) | OR1D5 (Homo sapiens) | OR1D5 | OR1E1 [1] | OR1E1 [2] | OR1E2 (Homo sapiens) | OR1E2

CC1COCc2cc3c(cc21)C(C)(C)C(C)C3(C)C (stereo not given)
inactive: OR1E1 [2]
active: OR1C1 (Homo sapiens) | OR1D2 (Homo sapiens) | OR1D5 (Homo sapiens) | OR1D5 | OR1E1 [1] | OR1E2 (Homo sapiens) | OR1E2

CCCC(=O)O
inactive: OR1C1 (Homo sapiens) | OR1D2 (Homo sapiens) | OR1D5 (Homo sapiens) | OR1D5 | OR1E1 [1] | OR1E1 [2] | OR1E2 (Homo sapiens) | OR1E2

c1ccc(Oc2ccccc2)cc1
inactive: OR1C1 (Homo sapiens) | OR1D2 (Homo sapiens) | OR1D5 (Homo sapiens) | OR1D5 | OR1E1 [1] | OR1E1 [2] | OR1E2 (Homo sapiens) | OR1E2
